This note sets out measurements from PMC7498005.

Protein sequences, listed by entry. Tags and fused reporters are not part of them. Lines headed by an entry give the natural chain unless they say otherwise; changes in a name come on top. Chains listed by the source or under a name are the forms on record and can include a tag or linker. Residues count along the entry.
UniProt Q99IB8, residues 1031-1661: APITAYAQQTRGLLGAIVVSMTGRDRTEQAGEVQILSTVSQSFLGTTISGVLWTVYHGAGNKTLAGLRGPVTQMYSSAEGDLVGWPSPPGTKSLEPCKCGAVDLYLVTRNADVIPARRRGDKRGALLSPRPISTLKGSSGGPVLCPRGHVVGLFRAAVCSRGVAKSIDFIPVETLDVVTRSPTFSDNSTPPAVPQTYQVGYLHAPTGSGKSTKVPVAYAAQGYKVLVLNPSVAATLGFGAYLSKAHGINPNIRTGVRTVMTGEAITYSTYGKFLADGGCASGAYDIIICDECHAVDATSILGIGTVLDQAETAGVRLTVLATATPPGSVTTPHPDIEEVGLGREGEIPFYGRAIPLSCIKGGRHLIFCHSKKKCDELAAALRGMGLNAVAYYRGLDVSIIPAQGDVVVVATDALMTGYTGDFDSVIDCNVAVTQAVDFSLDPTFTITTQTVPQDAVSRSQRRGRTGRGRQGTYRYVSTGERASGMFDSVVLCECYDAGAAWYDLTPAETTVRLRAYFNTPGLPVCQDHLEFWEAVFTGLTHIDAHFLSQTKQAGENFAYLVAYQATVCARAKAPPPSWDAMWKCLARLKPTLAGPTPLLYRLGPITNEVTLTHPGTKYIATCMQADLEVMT
UniProt O95197: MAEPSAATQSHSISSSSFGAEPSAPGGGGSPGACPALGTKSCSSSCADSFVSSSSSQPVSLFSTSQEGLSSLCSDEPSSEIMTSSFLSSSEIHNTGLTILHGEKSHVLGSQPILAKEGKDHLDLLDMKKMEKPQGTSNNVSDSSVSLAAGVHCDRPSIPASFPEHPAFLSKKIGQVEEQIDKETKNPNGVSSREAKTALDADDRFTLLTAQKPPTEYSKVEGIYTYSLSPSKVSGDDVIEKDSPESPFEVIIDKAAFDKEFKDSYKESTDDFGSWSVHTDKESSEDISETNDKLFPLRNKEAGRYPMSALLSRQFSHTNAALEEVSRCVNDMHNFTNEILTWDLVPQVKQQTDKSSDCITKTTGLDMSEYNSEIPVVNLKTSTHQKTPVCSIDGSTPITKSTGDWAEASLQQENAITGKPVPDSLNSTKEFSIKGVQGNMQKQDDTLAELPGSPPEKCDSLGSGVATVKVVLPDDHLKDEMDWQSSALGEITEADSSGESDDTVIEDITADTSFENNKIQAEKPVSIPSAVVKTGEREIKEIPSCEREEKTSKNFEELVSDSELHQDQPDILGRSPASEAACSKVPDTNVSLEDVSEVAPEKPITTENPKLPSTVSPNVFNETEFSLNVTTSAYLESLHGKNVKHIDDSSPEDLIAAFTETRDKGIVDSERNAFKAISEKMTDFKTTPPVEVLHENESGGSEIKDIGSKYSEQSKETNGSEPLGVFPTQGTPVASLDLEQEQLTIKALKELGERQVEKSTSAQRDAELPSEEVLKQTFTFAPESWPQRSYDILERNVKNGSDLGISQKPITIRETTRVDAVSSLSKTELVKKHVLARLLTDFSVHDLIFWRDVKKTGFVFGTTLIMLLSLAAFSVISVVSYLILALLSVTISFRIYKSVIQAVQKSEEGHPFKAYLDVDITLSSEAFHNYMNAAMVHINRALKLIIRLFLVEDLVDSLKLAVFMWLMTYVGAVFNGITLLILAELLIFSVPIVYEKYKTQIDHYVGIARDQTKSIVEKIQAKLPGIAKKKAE
Reticulon 3 short isoform (RTN3S) (O95197-3, form named): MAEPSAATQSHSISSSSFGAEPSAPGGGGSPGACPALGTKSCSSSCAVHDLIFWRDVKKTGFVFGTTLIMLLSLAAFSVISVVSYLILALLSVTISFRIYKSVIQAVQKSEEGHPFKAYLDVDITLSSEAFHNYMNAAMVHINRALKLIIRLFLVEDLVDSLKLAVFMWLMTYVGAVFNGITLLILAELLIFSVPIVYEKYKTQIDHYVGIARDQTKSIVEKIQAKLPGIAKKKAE

No constants are given. Whether binding was seen depends on the method and setting. Some results given as binding are weak or reduced against the parent protein; the word gives no strength.

For the test, the target named is HCV NS3 (genotype 2a, clone JFH1) (Hepatitis C virus genotype 2a (clone JFH1)) (UniProt Q99IB8). Put plainly: RNA ChIP (immunoprecipitation with an anti-dsRNA antibody, Western blot of the precipitate); cells fixed with 4% formaldehyde, lysed in SDS ChIP lysis buffer; 100 ug total protein, 10 ug/ml anti-dsRNA antibody overnight at 4°C, protein A/G agarose; non-specific IgG as IP control; precipitate probed for RTN3L&S and HCV NS3; lysates of Huh7.0, JFH-1 infected Huh7.0 and HCV FL-Replicon cells. A general note: Immunoblotting shows a protein as a band on a membrane.

In the case of “Reticulon 3 long isoform (RTN3L) (from UniProt O95197 1-1032)”, the binding result was “binds”.

Turning to “Reticulon 3 short isoform (RTN3S) (from UniProt O95197-3 1-236)”, the binding entry is given as “binds”.
